Laboratory results as given in the supplement of paper PMC9938546.
Structures can show the parent of a compound that is named as a salt. The list shows a part of the results. Baselines shift from plate to plate; read single values as rough.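 HCT116-GFP, a KRAS-mutant, microsatellite-unstable human colorectal cancer line, constantly expresses green fluorescent protein; immune cells were from healthy donors. Cancer cell survival was tracked by live-cell imaging of green fluorescence, and activated immune cells by themselves reduced survival to roughly half.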

What follows are compounds tested on HCT116-GFP (assay: HCT116-GFP viability (GFP intensity) relative to untreated HCT116-GFP monoculture control, co-culture with activated PBMCs; higher = less cancer cell killing). Conditions: culture: co-culture with anti-CD3/IL2 activated PBMCs 1:1; 10 µM; 72 h.
Work on `CN1CCC[C@@H]1CCO[C@](C)(c1ccccc1)c1ccc(Cl)cc1` [Clemastine fumarate] yielded an HCT116-GFP viability of 56.9%. `COc1cc2ncnc(Nc3ccc(F)c(Cl)c3)c2cc1OCCCN1CCOCC1` [Gefitinib] showed an HCT116-GFP viability of 49.4%. `CC(C(=O)O)c1ccc(C(=O)c2cccs2)cc1` (stereo not drawn) [Suprofen] gave an HCT116-GFP viability of 58.7%. `Brc1c(NC2=NCCN2)ccc2nccnc12` [Brimonidine L-Tartrate] showed an HCT116-GFP viability of 40.3%. Work on `CN(C)CCOC(=O)COc1ccc(Cl)cc1` [Meclofenoxate hydrochloride] yielded an HCT116-GFP viability of 71.8%. `CCCc1nc(C(C)(C)O)c(C(=O)O)n1Cc1ccc(-c2ccccc2-c2nnn[nH]2)cc1` [Olmesartan] was tested, and the HCT116-GFP viability was 35.3%. `OC(CCN1CCCCC1)(c1ccccc1)C1CCCCC1` (stereo not drawn) [Trihexyphenidyl-D,L Hydrochloride] gave an HCT116-GFP viability of 74%. `N=C(N)N/N=C/c1c(Cl)cccc1Cl` [Guanabenz acetate] showed an HCT116-GFP viability of 52.2%. `CN(CCOc1ccc(CC2SC(=O)NC2=O)cc1)c1ccccn1` (stereo not drawn) [Rosiglitazone Hydrochloride] showed an HCT116-GFP viability of 20.8%. `CCC(=O)OCC(=O)[C@@]1(OC(=O)CC)[C@H](C)C[C@H]2[C@H]3[C@H]([C@@H](O)C[C@@]21C)[C@@]1(C)C=CC(=O)C=C1C[C@H]3Cl` [Alclometasone dipropionate] gave an HCT116-GFP viability of 82.3%. `COc1ccc(C[C@@H]2c3cc(OC)c(OC)cc3CC[N@+]2(C)CCC(=O)OCCCCCOC(=O)CC[N@@+]2(C)CCc3cc(OC)c(OC)cc3[C@H]2Cc2ccc(OC)c(OC)c2)cc1OC` [Cisatracurium besylate] was tested, and the HCT116-GFP viability was 41.2%. Work on `Nc1cc(-c2ccncc2)c[nH]c1=O` [Amrinone] yielded an HCT116-GFP viability of 69.3%. For `CC(N)C12CC3CC(CC(C3)C1)C2` (stereo not drawn) [Rimantadine Hydrochloride], the HCT116-GFP viability was 54.1%. `CN(C)[C@@H]1C(O)=C(C(N)=O)C(=O)[C@@]2(O)C(O)=C3C(=O)c4c(O)ccc(Cl)c4[C@@H](O)[C@H]3C[C@@H]12` [Demeclocycline hydrochloride] showed an HCT116-GFP viability of 72.1%. In the case of `O=C1c2ccccc2S(=O)(=O)N1CCCCN1CCN(c2ncccn2)CC1` [Ipsapirone], the HCT116-GFP viability is reported as 33.7%. Compound `Cn1c([N+](=O)[O-])cnc1COC(N)=O` [Ronidazole] has an HCT116-GFP viability of 61.4%. `N[C@@H](C(=O)N[C@@H]1C(=O)N2C(C(=O)O)=C(Cl)CS[C@H]12)c1ccccc1` [Cefaclor hydrate] showed an HCT116-GFP viability of 32.6%. Work on `COc1ccc(C(=O)NCc2ccc(OCCN(C)C)cc2)cc1OC` [Itopride] yielded an HCT116-GFP viability of 67.2%. In the case of `CC(Oc1ccccc1)C(=O)N[C@@H]1C(=O)N2[C@@H]1SC(C)(C)[C@@H]2C(=O)O` (stereo partly drawn) [Phenethicillin potassium salt], the HCT116-GFP viability is reported as 69.3%. With `CO/N=C(\C(=O)N[C@@H]1C(=O)N2C(C(=O)O)=C(C[N+]3(C)CCCC3)CS[C@H]12)c1csc(N)n1` [Cefepime hydrochloride] the HCT116-GFP viability was 33.9%. `CCOC(=O)[C@H](CCc1ccccc1)N[C@@H](C)C(=O)N1CCC[C@H]1C(=O)O` [Enalapril maleate] gave an HCT116-GFP viability of 40.1%. `CC(Oc1c(Cl)cccc1Cl)C1=NCCN1` (stereo not drawn) [Lofexidine] was tested, and the HCT116-GFP viability was 25.7%. With `CC1=C(CC(=O)O)c2cc(F)ccc2/C1=C\c1ccc([S+](C)[O-])cc1` (stereo not drawn) [Sulindac] the HCT116-GFP viability was 42.6%. `CN(C)CCCO[C@@H]1[C@H]2OC(C)(C)O[C@H]2O[C@@H]1[C@H](O)CO` [Amiprilose hydrochloride] was tested, and the HCT116-GFP viability was 68.6%. `C[C@]12CC[C@@H]3c4ccc(O)cc4CC[C@H]3[C@@H]1C[C@@H](O)[C@@H]2O` [Estriol] gave an HCT116-GFP viability of 36.8%. `CC[N+](CC)(CC)CCC(O)(c1ccccc1)C1CCCCC1` (stereo not drawn) [Tridihexethyl chloride] showed an HCT116-GFP viability of 46.6%. `CCc1cccc2c3c([nH]c12)C(CC)(CC(=O)O)OCC3` (stereo not drawn) [Etodolac] was tested, and the HCT116-GFP viability was 47.3%. `Cc1noc(NS(=O)(=O)c2ccc(N)cc2)c1C` [Sulfisoxazole] gave an HCT116-GFP viability of 38.8%. Compound `C=CC1=C(C(=O)O)N2C(=O)[C@@H](NC(=O)/C(=N\OCC(=O)O)c3csc(N)n3)[C@H]2SC1` [Cefixime] has an HCT116-GFP viability of 51.3%. Compound `OCCOCCN1CCN(C(c2ccccc2)c2ccc(Cl)cc2)CC1` (stereo not drawn) [Hydroxyzine dihydrochloride] has an HCT116-GFP viability of 38.2%. With `Cc1ccccc1N1C(=O)c2cc(S(N)(=O)=O)c(Cl)cc2NC1C` (stereo not drawn) [Metolazone] the HCT116-GFP viability was 37.6%. Work on `Cc1cc(-n2c(=O)[nH]c(=O)n(C)c2=O)ccc1Oc1ccc(SC(F)(F)F)cc1` [Toltrazuril] yielded an HCT116-GFP viability of 39.1%. `COc1ccc2[nH]c([S+]([O-])Cc3ncc(C)c(OC)c3C)nc2c1` (stereo not drawn) [Omeprazole] was tested, and the HCT116-GFP viability was 56.2%. For `CC(=O)Nc1ccc(O)cc1` [Acetaminophen], the HCT116-GFP viability was 60.9%. Work on `COc1cc(C(=O)NC2CCCNC2)cc(OC)c1OC` (stereo not drawn) [Troxipide] yielded an HCT116-GFP viability of 48.6%. `C[C@]12CC[C@@H]3c4ccc(O)cc4CC[C@H]3[C@@H]1CCC2=O` [Estrone] gave an HCT116-GFP viability of 68.4%. Work on `CC(=O)N(CC(C)C(=O)O)c1c(I)cc(I)c(N)c1I` (stereo not drawn) [Iocetamic acid] yielded an HCT116-GFP viability of 78.7%. Compound `CN(C)[C@@H]1C(O)=C(C(N)=O)C(=O)[C@@]2(O)C(O)=C3C(=O)c4c(O)ccc(Cl)c4[C@@](C)(O)[C@H]3C[C@@H]12` [Chlortetracycline hydrochloride] has an HCT116-GFP viability of 35.1%.
